For some assays here: For at least one compound, name, drawing or mass did not settle the structure. Some results were stated once for a whole list of compounds, not compound by compound.
Legend:
SARS-CoV-2 [1] = format: cell-based; conditions: 25-50 μM, primary human alveolar cells, FIG. 11
SARS-CoV-2 [2] = format: cell-based; conditions: primary human alveolar cells, FIG. 10

COc1cc(O)c2c(c1)O[C@H](c1ccccc1)CC2=O [Pinostrobin]
Reduction of infected cells (SARS-CoV-2 [1]): 60-70%
Reduction of virus titers (result in words) (SARS-CoV-2 [2]): reduced virus titers in a dose-dependent manner

From patent US20230201158A1, “PHARMACEUTICAL COMPOSITION CAPABLE OF INHIBITING REPLICATION OF CORONAVIRUS” (MAHIDOL UNIVERSITY, priority 2020, published 2023)
